No constants are given. Whether binding was seen depends on the method and setting. Some entries that bind do so weakly or less than the wild type.
B1: 7D4 (antibody, mouse IgG1, V domains shown)
VH: QIQLVQSGPELKKPGETVKISCKASGYTFTNYGMNWVKQAPGKDLKWMGWINTYSGVPTYADDFKGRFAFSLETSASTAYLQINNLKNEDTATYFCARFSYYGRHYFDYWGQGTTLTVSS
VL: DIVLTQSPASLAVSLGQRATISCKASQSVDYDGDSYMNWYQQKPGQPPQLLIYAASNLGSGIPARFSGSGSGTDFTLNIHPVEEEDAATYYCHQSTDDPPWTFGGGTKLEIK
B2: 14A1 (antibody, mouse IgG1, V domains shown)
VH: QIQLVQSGPELKKPGETVKISCKASGYTFTNYGMNWVKQAPGKGLKWMGWINTYSGVPTYADDFKGRFAFSLETSASTAYLQINNFKNEDTATYFCARFSYYGRHYFDYWGQGTALTASS
VL: DIVLTQSPASLAVSLGQRATISCKASQSVDYDGDSYMNWYQQKPGQPPKLLIYAASNLKSGIPARFSGSGSGTDFTLNIHPVEEEDAATYYCQQTTDDPPWTFGGGTKLEIK
B3: 53A11 (antibody, mouse IgG2a, V domains shown)
VH: EVQLQQSGPELLKPGASVKISCKASGYTFTDYTMHWVKQSHGKSLEWIGGINPYYGGTTYNEKFKDKATLTVDKSSSTAYMELRSLTSEDSAVYYCAKGDYYGGSYNYWGQGTTLTVSS
VL: DIVLTQSLATLSVTPGDSVSLSCRASQDISNSLHWYQQKSHESPRLLIKYASQSISGIPSRFSGSGSGTDFTLSINSVETEDFGMYFCQQSNSWPYTFGGGTKLEIK
B4: 13B3 (antibody, mouse IgG2a, V domains shown)
VH: EVQLQQSGPELLKPGASVKISCKASGYTFTEYTMHWVKQSHGKSLEWIGSINPYYGGTSYNEKFKDKATLTVDKSSNTAYMEFRSLTSEDCAVYYCARYGNYVGYFDYWGQGTTLTVSS
VL: ENVLTQSPAIMSASLGEKVTMSCRASSSVHYMYWYQQKSDASPKLWIYYTSNLAPGVPDRFSGSGSGNSYSLTISSMEGEDAATYYCQQFTSSPYTFGGGTKLEIK
B5: 23H8 (antibody, mouse IgG2a, V domains shown)
VH: EVQLQQSGPELLKPGASVKISCKASGYTFTDNTIHWVKQSHGKSLEWIGHINPYYGGTNNNEKFKDKATLTVDKSSSTAYMELRSLTSEDSAIYYCARKGIYYSSPFDYWGQGTTLTVSS
VL: DIQMTQTTSSLSASLGDRVTISCRASQDINNYLNWYQQKPDGTVKLLISYTSKLHSGVPSRFSGSGSGTDYSLTISNLEREDFATYFCQQGNTLPFTFGSGTNLEIK
B6: 16B3 (antibody, mouse IgG2a, V domains shown)
VH: DVKLVESGGGLVQPGGSLKLSCTASGFTFSGYTMSWVRQTPEKRLELVAEISFARDRAFYPDTVKGRFTISRDNAKNTLYLQMSSLKSEDTAMYYCTRLGGRNHDYWYFDVWGTGTTVTVSS
VL: DIVLTQSPTSLAVSPGQRATISCRASESVEYYGTSLMQWYQQKPGQRPQLLIYAASNVESGVPARFSGSGSGTDFSLNIHPVEEDDIAVYFCQQSWKVPFTFGSGTKLEIK
B7: 55A1 (antibody, mouse IgG2a, V domains shown)
VH: QIHLVQSGPELKKPGETVKISCKASGYTFTNYGMNWVKQAPGKGLKWMGWINTYSGVPTYAGDFKGRFAFSLETSASTAYLQINNLKNEDTATYFCARRGYYGRRYFDVWGTGTTVTVSS
VL: DIVLTQSPASLAVSLGQRATISCKASQSVDYDVDSYMHWYQQKPGQPPKLLIYAASNLASGIPARFSGGGSGTDFTLNIHPVEEEDVATYYCQQTIEDPPTFGGGTKLEIK
B8: 14E1 (antibody, mouse IgG1, V domains shown)
VH: QVQLQQSGAELVKPGASVRLSCKASGYTFTKYTIHWVKQRSGQGLEWIGWFYPGSDSIKYNEKFKDKATLTADKSSRTVYMELSRLTSEDSAVYFCARHEEYTNSLAYWGQGTLVTVSA
VL: DIQMTQTTSSLSASLGDRVTISCRASQDISNYLNWYQQQPDGTVKLLIYYTSRLHSGVPSRFSGSGSGTDYSLTISNLEQEDIATYFCQQGYTLPWTFGGGTNLEIK
B9: 19E7 (antibody, mouse IgG2a, V domains shown)
VH: QVQLQQPGSVLVRPGASVKLSCKASGYTFTTYWMHWVKQRPGQGLEWIGEIHPYSGNNNNNEKFKGKATLTVDTSSSTAYVDLSRLTSEDSAVYYCARYDSNYVFAYWGQGTLVTVSA
VL: QIVLTQSPAIMSASPGEGVTITCSASSSVSYMHWFQQKPGTSPKLWIYSTSNLASGVPARFSGSGSGTSYSLTISRMEAEDAATYYCQQRDSYLTFGSGTKLEVK
B10: 16F6 (antibody, V domains shown)
VH: QVQLQQSGAELMKPGASVKISCKATGYTFSTYWIAWVKQRPGHGLEWIGEILPGSAKTKYNKKFKGKATFTADTSSNTAYMQLSSLTSEDSAVYYCAVYDYGADYWGQGTSVTVSS
VL: DIVMTQSHKFMSTSVGDRVSITCKASQDVYTAVAWYQQKPGQSPKLLIYSASYRFTGVPDRFTGSGAGTEFTFTINSVQAEDLAVYYCQQHYSIPRTFGGGTKLEIK

Experiments:
[1] = biological target: human [1-157]-mouse chimeric EL (human; mouse) (UniProt Q9WVG5); assay: ELISA; Ab captured on anti-mouse IgG-Fc; EL heparin extract
[2] = biological target: human [1-157]-mouse chimeric EL (human; mouse) (UniProt Q9WVG5); assay: ELISA: antibody captured on anti-mouse IgG-Fc plate, EL heparin extract added, detection with biotin anti-C2-tag antibody and HRP-streptavidin, A450
[3] = biological target: human [1-305]-mouse chimeric EL (human; mouse) (UniProt Q9WVG5); assay: ELISA; Ab captured on anti-mouse IgG-Fc; EL heparin extract
[4] = biological target: T1, human [202-500]-mouse chimeric EL (mouse; human) (UniProt Q9WVG5); assay: as above
T1 sequence: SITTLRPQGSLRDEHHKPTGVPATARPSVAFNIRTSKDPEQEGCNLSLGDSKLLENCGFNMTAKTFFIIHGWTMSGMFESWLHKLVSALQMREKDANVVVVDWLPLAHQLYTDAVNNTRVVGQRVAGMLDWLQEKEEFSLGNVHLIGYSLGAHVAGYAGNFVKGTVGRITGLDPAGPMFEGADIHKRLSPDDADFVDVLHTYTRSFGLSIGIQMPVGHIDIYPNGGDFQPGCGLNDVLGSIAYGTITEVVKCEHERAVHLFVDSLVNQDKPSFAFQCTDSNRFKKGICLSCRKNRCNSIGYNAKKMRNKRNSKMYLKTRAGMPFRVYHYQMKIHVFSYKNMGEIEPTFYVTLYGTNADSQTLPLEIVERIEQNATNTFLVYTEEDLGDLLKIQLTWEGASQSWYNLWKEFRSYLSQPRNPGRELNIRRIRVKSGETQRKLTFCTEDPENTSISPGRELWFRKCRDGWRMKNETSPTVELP

[5] = biological target: human [1-305]-mouse chimeric EL (human; mouse) (UniProt Q9WVG5); assay: ELISA: antibody captured on anti-mouse IgG-Fc plate, EL heparin extract added, detection with biotin anti-C2-tag antibody and HRP-streptavidin, A450
[6] = biological target: T1, human [202-500]-mouse chimeric EL (mouse; human); assay: as above

| Binder | binding [1] | binding [2] | binding [3] | binding [4] | binding [5] | binding [6] |
| --- | --- | --- | --- | --- | --- | --- |
| B1 | binds | binds |  |  |  |  |
| B2 | binds | binds |  |  |  |  |
| B3 | binds | binds |  |  |  |  |
| B4 | binds | binds |  |  |  |  |
| B5 | binds | binds |  |  |  |  |
| B6 |  |  | binds | binds | binds | binds |
| B7 | binds | binds |  |  |  |  |
| B8 |  |  | binds | binds | binds | binds |
| B9 |  |  | binds | binds | binds | binds |
| B10 |  |  |  |  | binds |  |

From patent US20200071424A1
